# Inconclusive results, whose numbers are uncertain, are shown with a selection of clear calls. For some of these results: Potencies of inconclusive entries are doubtful fits and often do not repeat. The source made the active and inactive calls. Rule for the calls: active = hit-call score of the fitted dose curve at least 0.9, where 1 is the maximum; inconclusive = response in the unintended direction; inactive = score below 0.9.
# Protein sequences, listed by entry. Tags and fused reporters are not part of them. Lines headed by an entry give the natural chain unless they say otherwise; changes in a name come on top.
# UniProt P08219: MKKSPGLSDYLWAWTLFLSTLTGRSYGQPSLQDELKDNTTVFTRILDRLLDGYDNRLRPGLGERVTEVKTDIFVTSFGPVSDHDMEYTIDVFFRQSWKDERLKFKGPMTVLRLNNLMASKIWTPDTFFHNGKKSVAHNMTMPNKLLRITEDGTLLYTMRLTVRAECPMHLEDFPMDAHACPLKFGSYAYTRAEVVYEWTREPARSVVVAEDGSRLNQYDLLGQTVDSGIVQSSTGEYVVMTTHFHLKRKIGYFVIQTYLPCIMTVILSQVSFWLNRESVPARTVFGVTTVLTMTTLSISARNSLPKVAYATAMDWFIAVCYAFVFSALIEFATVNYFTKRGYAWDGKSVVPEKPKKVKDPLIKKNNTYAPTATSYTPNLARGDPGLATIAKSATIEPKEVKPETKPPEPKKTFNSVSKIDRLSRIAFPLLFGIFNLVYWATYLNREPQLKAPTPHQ
# UniProt P37231: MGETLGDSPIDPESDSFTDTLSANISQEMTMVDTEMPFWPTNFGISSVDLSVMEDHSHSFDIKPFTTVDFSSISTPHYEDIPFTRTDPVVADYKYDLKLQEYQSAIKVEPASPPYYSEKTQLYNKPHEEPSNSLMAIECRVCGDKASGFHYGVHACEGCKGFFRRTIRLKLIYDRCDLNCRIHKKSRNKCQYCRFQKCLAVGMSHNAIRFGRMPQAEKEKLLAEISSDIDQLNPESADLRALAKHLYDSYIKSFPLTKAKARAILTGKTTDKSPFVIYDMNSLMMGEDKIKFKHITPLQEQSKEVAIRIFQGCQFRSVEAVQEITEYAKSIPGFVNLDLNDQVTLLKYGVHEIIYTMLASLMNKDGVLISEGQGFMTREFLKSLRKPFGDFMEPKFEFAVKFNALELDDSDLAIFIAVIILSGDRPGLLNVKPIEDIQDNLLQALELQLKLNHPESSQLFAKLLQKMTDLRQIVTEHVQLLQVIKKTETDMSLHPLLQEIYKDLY
# UniProt P08173, whole entry, looked up: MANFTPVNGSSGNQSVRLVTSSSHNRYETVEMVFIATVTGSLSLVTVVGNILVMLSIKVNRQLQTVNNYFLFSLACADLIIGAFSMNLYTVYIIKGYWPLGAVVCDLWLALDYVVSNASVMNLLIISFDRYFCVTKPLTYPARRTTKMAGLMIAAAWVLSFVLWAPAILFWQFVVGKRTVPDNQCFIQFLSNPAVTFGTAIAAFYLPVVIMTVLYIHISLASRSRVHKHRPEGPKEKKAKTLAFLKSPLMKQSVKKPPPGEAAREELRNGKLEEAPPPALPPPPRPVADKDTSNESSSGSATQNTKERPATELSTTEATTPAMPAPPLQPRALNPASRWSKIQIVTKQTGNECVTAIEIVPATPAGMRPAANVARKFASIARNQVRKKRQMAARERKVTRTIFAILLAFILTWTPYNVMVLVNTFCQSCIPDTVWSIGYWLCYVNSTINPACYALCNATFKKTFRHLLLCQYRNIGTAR
# UniProt P11712, whole entry, looked up: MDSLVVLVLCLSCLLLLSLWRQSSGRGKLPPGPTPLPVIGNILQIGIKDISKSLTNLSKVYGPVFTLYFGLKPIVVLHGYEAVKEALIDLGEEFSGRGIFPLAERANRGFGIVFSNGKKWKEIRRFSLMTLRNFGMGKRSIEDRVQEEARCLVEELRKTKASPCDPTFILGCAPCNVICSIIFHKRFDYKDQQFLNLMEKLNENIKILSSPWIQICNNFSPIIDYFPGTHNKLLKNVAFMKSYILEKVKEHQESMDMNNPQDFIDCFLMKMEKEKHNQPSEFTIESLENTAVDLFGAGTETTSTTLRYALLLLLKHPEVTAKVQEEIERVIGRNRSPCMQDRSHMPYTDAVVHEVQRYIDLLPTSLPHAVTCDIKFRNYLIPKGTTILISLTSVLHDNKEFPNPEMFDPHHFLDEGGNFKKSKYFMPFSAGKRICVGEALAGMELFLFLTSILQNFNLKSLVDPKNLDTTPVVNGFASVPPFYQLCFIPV
# UniProt P13945: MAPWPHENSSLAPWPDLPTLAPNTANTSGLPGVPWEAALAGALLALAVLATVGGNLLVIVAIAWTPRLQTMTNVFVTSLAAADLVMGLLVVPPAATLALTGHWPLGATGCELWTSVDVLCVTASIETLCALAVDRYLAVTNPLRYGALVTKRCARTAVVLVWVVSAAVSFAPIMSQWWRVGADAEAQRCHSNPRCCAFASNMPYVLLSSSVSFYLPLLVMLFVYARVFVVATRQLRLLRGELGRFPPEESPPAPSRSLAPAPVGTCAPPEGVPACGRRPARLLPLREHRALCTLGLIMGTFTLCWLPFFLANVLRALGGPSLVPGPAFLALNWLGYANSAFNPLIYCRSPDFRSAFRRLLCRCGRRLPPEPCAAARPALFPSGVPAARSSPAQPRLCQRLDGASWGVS
# UniProt P10275: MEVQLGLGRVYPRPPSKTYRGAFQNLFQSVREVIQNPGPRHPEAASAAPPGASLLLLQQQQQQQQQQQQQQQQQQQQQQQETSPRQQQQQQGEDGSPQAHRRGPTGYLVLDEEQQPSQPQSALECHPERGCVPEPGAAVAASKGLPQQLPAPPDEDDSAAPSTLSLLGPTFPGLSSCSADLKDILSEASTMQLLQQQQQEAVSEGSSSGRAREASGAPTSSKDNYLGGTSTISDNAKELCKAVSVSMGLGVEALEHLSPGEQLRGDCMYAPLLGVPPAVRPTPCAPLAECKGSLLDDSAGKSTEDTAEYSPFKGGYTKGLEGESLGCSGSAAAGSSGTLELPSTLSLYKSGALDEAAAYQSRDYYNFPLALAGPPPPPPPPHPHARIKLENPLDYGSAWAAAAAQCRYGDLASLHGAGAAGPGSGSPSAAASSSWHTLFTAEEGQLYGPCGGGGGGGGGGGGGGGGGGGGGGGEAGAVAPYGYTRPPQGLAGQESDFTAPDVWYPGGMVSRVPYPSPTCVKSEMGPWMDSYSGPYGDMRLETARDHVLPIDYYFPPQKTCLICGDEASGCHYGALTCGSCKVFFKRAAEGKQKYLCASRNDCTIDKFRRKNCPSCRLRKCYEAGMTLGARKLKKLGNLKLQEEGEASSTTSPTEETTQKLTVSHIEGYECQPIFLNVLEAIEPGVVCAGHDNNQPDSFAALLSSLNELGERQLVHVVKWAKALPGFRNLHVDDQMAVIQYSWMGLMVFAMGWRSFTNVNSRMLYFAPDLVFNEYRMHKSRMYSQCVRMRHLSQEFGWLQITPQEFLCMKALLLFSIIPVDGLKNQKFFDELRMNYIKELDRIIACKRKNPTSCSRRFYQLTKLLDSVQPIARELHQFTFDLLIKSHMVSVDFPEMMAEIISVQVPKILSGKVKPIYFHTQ
# UniProt P28190, whole entry, looked up: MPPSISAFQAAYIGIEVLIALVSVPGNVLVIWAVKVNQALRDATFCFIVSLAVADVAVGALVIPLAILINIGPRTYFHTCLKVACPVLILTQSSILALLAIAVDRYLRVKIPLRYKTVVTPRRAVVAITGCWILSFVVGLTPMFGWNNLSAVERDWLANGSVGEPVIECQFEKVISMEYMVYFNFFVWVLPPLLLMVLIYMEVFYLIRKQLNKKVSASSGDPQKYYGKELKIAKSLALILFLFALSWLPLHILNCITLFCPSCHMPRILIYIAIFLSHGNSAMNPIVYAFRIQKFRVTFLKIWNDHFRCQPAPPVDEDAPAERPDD
# UniProt Q9Y233: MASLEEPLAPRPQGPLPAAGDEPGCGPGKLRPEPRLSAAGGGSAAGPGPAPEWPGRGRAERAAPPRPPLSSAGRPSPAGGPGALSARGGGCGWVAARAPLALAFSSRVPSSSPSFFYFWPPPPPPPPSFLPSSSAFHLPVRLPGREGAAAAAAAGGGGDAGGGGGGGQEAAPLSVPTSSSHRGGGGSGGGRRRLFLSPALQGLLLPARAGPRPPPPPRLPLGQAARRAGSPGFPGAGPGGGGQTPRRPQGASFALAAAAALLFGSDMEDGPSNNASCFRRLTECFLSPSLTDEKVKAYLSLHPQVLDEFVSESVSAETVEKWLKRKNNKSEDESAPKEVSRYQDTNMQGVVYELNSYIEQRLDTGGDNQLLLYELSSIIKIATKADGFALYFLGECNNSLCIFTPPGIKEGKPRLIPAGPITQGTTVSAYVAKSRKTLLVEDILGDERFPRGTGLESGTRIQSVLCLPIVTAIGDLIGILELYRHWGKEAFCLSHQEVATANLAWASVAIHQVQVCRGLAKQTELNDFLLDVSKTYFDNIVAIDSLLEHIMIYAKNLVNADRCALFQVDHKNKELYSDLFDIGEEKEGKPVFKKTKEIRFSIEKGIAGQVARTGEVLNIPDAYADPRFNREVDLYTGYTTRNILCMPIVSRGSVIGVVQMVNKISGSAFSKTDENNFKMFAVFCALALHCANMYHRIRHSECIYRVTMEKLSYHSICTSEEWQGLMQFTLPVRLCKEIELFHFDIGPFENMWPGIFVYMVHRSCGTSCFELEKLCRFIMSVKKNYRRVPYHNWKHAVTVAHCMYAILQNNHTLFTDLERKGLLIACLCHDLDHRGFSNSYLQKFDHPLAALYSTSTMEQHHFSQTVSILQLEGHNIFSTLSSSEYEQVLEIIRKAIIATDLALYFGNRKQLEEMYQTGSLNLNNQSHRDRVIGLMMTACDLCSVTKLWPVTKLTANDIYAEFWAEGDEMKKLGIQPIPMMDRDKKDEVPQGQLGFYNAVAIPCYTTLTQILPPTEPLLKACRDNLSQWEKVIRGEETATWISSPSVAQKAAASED
# Tests used:
# [1] = target: bovine Gamma-Aminobutyric Acid Type A Receptor Agonist (GABAR Agonist), GABRA1 (gene 780973) (UniProt P08219); assay: NVS_LGIC_bGABAR_Agonist: NovaScreen (NVS) Ligand-Gated Ion Channel Assay for bovine Gamma-Aminobutyric Acid Type A Receptor Agonist (GABAR Agonist) (AID 2283338)
# Procedure, shortened: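 Radioligand binding to bovine cerebellar membranes in agonist format, read by filter-based scintillation counting after 1 h. Primary screen in duplicate at 25 uM, with actives followed in concentration series. Gain of signal versus DMSO.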
# [2] = target: Peroxisome proliferator-activated receptor gamma (Homo sapiens) (UniProt P37231); assay: OT_PPARg_PPARgSRC1_0480: Odyssey Thera (OT) 8-hour Protein-Complementation Assay for Peroxisome Proliferator-activated Receptor Gamma / SRC-1 Co-activator (AID 2283387);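 note: nuclear to cytoplasmic split Venus YFP fluorescence ratio reporting PPARg SRC-1 interaction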
# Procedure, shortened: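 Protein-fragment complementation in HEK293T: Venus YFP halves (residues 1-158, 159-239, mutated to IFP1/IFP2) fused to PPARg/SRC-1. 8 h exposure; N/C ratio at 488 nm; DMSO negative control.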
# [3] = target: human Muscarinic, M4 Receptor, CHRM4 (gene 1132) (UniProt P08173); assay: NVS_GPCR_hM4: NovaScreen (NVS) G Protein-Coupled Receptor Assay for human Muscarinic, M4 Receptor (AID 2283274)
# Procedure, shortened: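 Cell-free radioligand displacement using CHO-derived human M4 receptor protein, 1 h after dosing; bound radioactivity by filtration and scintillation counting. Primary screen single 25 uM duplicate, actives followed in concentration series.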
# [4] = target: human CYP2C9, CYP2C9 (gene 1559) (UniProt P11712); assay: NVS_ADME_hCYP2C9: NovaScreen (NVS) CYP450-related Enzyme Activity (ADME) Assay for human CYP2C9 (AID 2283108)
# Procedure, shortened: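 Cell-free assay of recombinant human CYP2C9 produced in Sf9 cells, with enzyme activity read by fluorescence intensity 0.75 h after compound addition. Loss of signal versus an acetonitrile negative control indicates inhibition. Primary screen used 10 uM in duplicate; actives were retested in concentration series.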
# [5] = target: human Adrenergic, Beta 3 Receptor (Adrb3), ADRB3 (gene 155) (UniProt P13945); assay: NVS_GPCR_hAdrb3: NovaScreen (NVS) G Protein-Coupled Receptor Assay for human Adrenergic, Beta 3 Receptor (Adrb3) (AID 2283262)
# Procedure, shortened: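 Membranes from SK-N-MC cells pretreated with isoproterenol and 8-bromo-cAMP were used in a radioligand competitive displacement binding assay. Binding was read by filter-based scintillation counting 1 hour after dosing. Primary screening was in duplicate at 25 uM, with concentration series in follow-up.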
# [6] = read-out: xenobiotic metabolism (CYP1A2), CYP1A2 (gene 1544); assay: CLD_CYP1A2_24hr: CellzDirect (CLD) Gene Expression Assay for xenobiotic metabolism (CYP1A2) at 24 hours (AID 2283683)
# Procedure, shortened: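 Primary human hepatocytes from two donor preparations dosed daily with multiple concentrations of chemical, 0.2% DMSO vehicle. CYP1A2 mRNA at 24 h quantified by qNPA chemiluminescence; gain of signal analyzed relative to DMSO. Cytotoxicity flagged by phase-contrast morphology.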
# [7] = read-out: alkyl and aryl transferase (GSTA2), GSTA2 (gene 2939); assay: CLD_GSTA2_24hr: CellzDirect (CLD) Gene Expression Assay for alkyl and aryl transferase (GSTA2) at 24 hours (AID 2283693)
# Procedure, shortened: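 Primary human hepatocytes (two donor preparations) dosed daily for two days with chemicals at multiple concentrations (vehicle 0.2% DMSO); GSTA2 mRNA at 24 h measured by qNPA chemiluminescence, gain-of-signal versus DMSO.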
# [8] = CCTE_Mundy_HCI_hN2_NOG_NeuronCount: CCTE's Neurite Outgrowth Assay in human hN2 cells for Neuron Count, Mundy Lab (AID 2284221)
# Procedure, shortened: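 Read-out is the number of betaIII-tubulin-positive neurons imaged by automated high-content analysis, with DMSO as negative control.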
# [9] = target: Ratio of Nucleoli Translocation and Cytoplasm, AR (gene 367) (UniProt P10275); assay: UPITT_HCI_U2OS_AR_TIF2_Nucleoli_Cytoplasm_Ratio_Antagonist: University of Pittsburgh U2OS Androgen Receptor-Transcriptional Intermediary Factor 2 (AR-TIF2) Antagonism High Content Imaging Assay for Ratio of Nucleoli Translocation and Cytoplasm (AID 2283999);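 note: antagonists lower the DHT-driven ratio of nucleolar to cytoplasmic red signal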
# Procedure, shortened: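 U2OS cells co-expressing RFP-tagged human AR and GFP-tagged TIF2, antagonist mode with DHT as baseline. Nucleolar-to-cytoplasmic red fluorescence ratio imaged by high-content microscopy; final compound 20 uM (0.2% DMSO) primary, 0.195–50 uM (0.5% DMSO) concentration-response.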
# [10] = target: Adenosine receptor A1 (Bos taurus) (UniProt P28190); assay: NVS_GPCR_bAdoR_NonSelective: NovaScreen (NVS) G Protein-Coupled Receptor Assay for bovine Adenosine Receptor (AdoR), Non-selective Binding (AID 2283244)
# Procedure, shortened: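 Bovine striatal membranes, radioligand displacement binding, 1 h after dosing, filter-based scintillation counting. Screened in duplicate at 25 uM, then concentration-response up to 50 uM; loss of specific binding relative to DMSO.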
# [11] = read-out: xenobiotic metabolism (CYP1A2), CYP1A2 (gene 1544); assay: CLD_CYP1A2_48hr: CellzDirect (CLD) Gene Expression Assay for xenobiotic metabolism (CYP1A2) at 48 hours (AID 2283703)
# Procedure, shortened: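 Primary human hepatocytes from two donor preparations were dosed daily for two days at multiple concentrations in 0.2% DMSO vehicle. CYP1A2 mRNA was measured at 48 hours by chemiluminescent quantitative nuclease protection assay, with gain of signal fitted versus DMSO and cytotoxicity annotated from morphology.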
# [12] = target: Nucleoli Translocation, AR (gene 367) (UniProt P10275); assay: UPITT_HCI_U2OS_AR_TIF2_Nucleoli_Agonist: University of Pittsburgh U2OS Androgen Receptor-Transcriptional Intermediary Factor 2 (AR-TIF2) Agonism High Content Imaging Assay for Nucleoli Translocation (AID 2283998)
# Procedure, shortened: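 High-content images quantify nucleolar accumulation of RFP-fused AR in cells also expressing GFP-TIF2; the endpoint is fitted as signal gain versus DMSO controls across final concentrations of 0.195 to 50 uM.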
# [13] = target: human Phosphodiesterase 10 (PDE10), PDE10A (gene 10846) (UniProt Q9Y233); assay: NVS_ENZ_hPDE10: NovaScreen (NVS) Enzymatic Assay for human Phosphodiesterase 10 (PDE10) (AID 2283195)
# Procedure, shortened: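 Fluorescence/mobility-shift readout of PDE10A enzyme activity, taken 1 h post-dosing. Primary screen in duplicate at 25 uM; actives (e.g. ≥30% inhibition) retested as singleton concentration-response, top concentration 50 uM.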
compound,measurement,setting,value
C=CCc1ccc2c(c1)OCO2,outcome,[1],inactive
same,AC50,[2],inconclusive: 50 µM
O=C(N[C@H](c1ccccc1)[C@@H]1CN2CCC1CC2)c1c(Cl)ccc(C(F)(F)F)c1Cl,outcome,[3],inactive
Cc1cc(C(C)(C)c2ccc(O)c(C)c2)ccc1O,AC50,[4],active: 942 nM
CCOP(=O)(SC(C)CC)N1CCSC1=O (stereo unspecified),outcome,[5],inactive
same,outcome,[6],inactive
same,AC50,[7],inconclusive: 20 µM
same,outcome,[8],inactive
Cc1cc(Cl)ccc1OCCCC(=O)O,AC50,[9],inconclusive: 50 µM
O=P(O)(O)CCCl,AC50,[5],inconclusive: 25 µM
same,outcome,[6],inactive
CCNc1nc(NC(C)C)nc(SC)n1,AC50,[10],active: 13.4 µM
same,outcome,[11],inactive
same,AC50,[12],inconclusive: 50 µM
same,AC50,[9],inconclusive: 50 µM
CC(C)[N+](=O)[O-],outcome,[13],inactive

# An excerpt of these results, with tabs:
compound	measurement	setting	value
C=CCc1ccc2c(c1)OCO2	outcome	[1]	inactive
CCOP(=O)(SC(C)CC)N1CCSC1=O (stereo unspecified)	outcome	[6]	inactive
O=P(O)(O)CCCl	outcome	[6]	inactive
CCNc1nc(NC(C)C)nc(SC)n1	AC50	[12]	inconclusive: 50 µM
